The values that follow come from doi:10.1101/2020.01.13.904318 (bioRxiv, 2020).

Results are given in words; binding and its absence hold for the method and conditions named. Some entries that bind do so weakly or less than the wild type.

In assay [1] the target is purified FrlR UTRA-domain (E. coli) (UniProt P45544). Briefly: SEC. On the technique in general: SEC sorts molecules by how far they enter the pores of the column.
The target is the same in assay [2]. Briefly: NMR.

B1: purified FrlR UTRA-domain (domain or fragment)
chain: QKVENALLTVSGFTDFGVSQGKATKEKVIEQERVSAAPFCEKLNIPGNSEVFHLCRVMYLDKEPLFIDSSWIPLSRYPDFDEIYVEGSSTYQLFQERFDTRVVSDKKTIDIFAATRPQAKWLKCELGEPLFRISKIAFDQNDKPVHVSELFCRANRITLTIDNKRH
For the molecule B1, the binding result in assay [1] and in assay [2] was “binds” in each case.
